Taken from: PubChem BioAssay AID1259308 (NCATS, 2017)

Screen: 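Knock-downs that increase output of a recombinant reporter protein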 (primary screen)
Cell system: human HEK293 embryonic kidney cells stably expressing firefly luciferase (HEK-CMV-Luc2-Hygro)
Reagent: single siRNA against human genes, 0.8 pmol siRNA per well
Timing: 72 h
Read-out: 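Reporter luminescence and viable-cell signal on separate replicate plates, given as percent of non-targeting control and median/MAD z-scores, plus per-cell luciferase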
Scale: total luciferase, z-score and total luciferase, % of control: higher = more reporter protein produced; luciferase per cell, z-score: higher = more reporter output per viable cell
Call rule: 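An siRNA counts as active if its total luciferase robust z-score exceeds 3; genes with two or more such siRNAs out of three were retested with fresh siRNAs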
Calls: active = raised luciferase; inactive = no rise
Here is an unselected part of about 59,000 reagents tested. In the full data, about 1,510 (2.6%) got an active call. 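Calls use total luciferase alone and ignore viability, so some active siRNAs may act by altering cell number.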 A number with no mark means an inactive call. Reagents against one gene are numbered here. Not all columns of the deposit are shown.

Gene	reagent	total luciferase, z-score	total luciferase, % of control	luciferase per cell, z-score
NEBL	1	-0.692	68.1	-0.153
NEBL	2	-0.414	73.7	-0.105
NEBL	3	-0.0561	80.8	0.176
NEBL	4	0.187	85.6	-0.263
NEBL	5	-0.104	79.8	-0.0415
NEBL	6	-1.3	56	-1.62
UAP1L1	1	2.81	138	1.6
UAP1L1	2	1.47	111	1.6
UAP1L1	3	1.02	102	0.962
C4BPA	1	-0.302	75.9	-0.263
C4BPA	2	-0.817	65.6	-0.868
C4BPA	3	0.965	101	0.714
POM121	1	0.872	99.2	0.567
POM121	2	-2.29	36.4	-3.7
POM121	3	1.76	117	1.18
EGFEM1P	1	-1.07	60.6	-0.225
EGFEM1P	2	-0.0903	80.1	0.814
EGFEM1P	3	1.42	110	0.947
EGFEM1P	4	-1.98	42.4	-1.78
EGFEM1P	5	-2.37	34.7	-2.7
EGFEM1P	6	0.494	91.7	0.299
BCL2L11	1	2.01	122	1.94
BCL2L11	2	0.134	84.6	0.225
BCL2L11	3	0.674	95.3	1.33
L1TD1	1	-0.0705	80.5	-0.347
L1TD1	2	2.42	130	1.33
L1TD1	3	-0.668	68.6	-1.01
OR10Q1	1	3.01 (active)	142	2.15
OR10Q1	2	-2.51	32	-1.95
OR10Q1	3	1.77	117	1.25
C12orf43	1	4.21 (active)	166	2.38
C12orf43	2	2.93	140	1.6
C12orf43	3	-0.141	79.1	-0.233
TM4SF5	1	-0.742	67.1	-0.727
TM4SF5	2	0.486	91.6	0.547
TM4SF5	3	2.39	129	1.74
FER	1	-1.38	54.4	-0.309
FER	2	-1.78	46.4	-1.99
FER	3	-0.318	75.6	-0.701
SCGB3A1	1	-0.981	62.4	-0.666
SCGB3A1	2	-0.746	67	-1.16
SCGB3A1	3	1.11	104	0.392
ERN2	1	-0.436	73.2	-0.356
ERN2	2	-1.07	60.5	-0.835
ERN2	3	0.0427	82.7	-0.3
COL25A1	1	0.636	94.5	0.0714
COL25A1	2	0.241	86.7	0.101
COL25A1	3	0.0758	83.4	-0.353
MCHR1	1	0.96	101	3.14
MCHR1	2	0.37	89.2	-0.405
MCHR1	3	-0.683	68.3	-1.04
DPM1	1	-0.994	62.1	-1.22
DPM1	2	2.44	130	2.57
DPM1	3	0.526	92.3	0.196
SIX4	1	-0.266	76.6	0.446
SIX4	2	-0.916	63.7	-0.766
SIX4	3	-1.63	49.4	-1.46
SC5D	1	-0.151	78.9	-0.506
SC5D	2	-0.473	72.5	-1.17
SC5D	3	-0.771	66.6	-0.277
ONECUT1	1	0.0283	82.4	0.956
ONECUT1	2	0.138	84.6	-0.106
ONECUT1	3	2.52	132	1.76
STXBP3	1	-1.18	58.3	-0.563
STXBP3	2	0.101	83.9	0.361
STXBP3	3	0.125	84.4	0.391
HNRNPA1	1	-0.469	72.6	-0.246
HNRNPA1	2	2.85	139	2.13
HNRNPA1	3	-1.12	59.6	-0.442
CITED4	1	0.758	97	0.391
CITED4	2	1.99	121	0.882
CITED4	3	-0.381	74.3	0.796
FMO5	1	2.8	138	1.43
FMO5	2	-2.37	34.8	-2.32
FMO5	3	0.188	85.6	0.11
